From publication PMC4980433 (Molecular Cell, 2016)
Results are given in words; binding and its absence hold for the method and conditions named. For some of these results: Binding seen in cells or lysates may run through a third protein. Some results given as binding are weak or reduced against the parent protein; the word gives no strength. For some of these results: Tags and fused reporters may be left off the sequences shown.

B1: MYC2-TNKS, wild type, full length, O95271 1-1327 (enzyme)
chain: MAASRRSQHHHHHHQQQLQPAPGASAPPPPPPPPLSPGLAPGTTPASPTASGLAPFASPRHGLALPEGDGSRDPPDRPRSPDPVDGTSCCSTTSTICTVAAAPVVPAVSTSSAAGVAPNPAGSGSNNSPSSSSSPTSSSSSSPSSPGSSLAESPEAAGVSSTAPLGPGAAGPGTGVPAVSGALRELLEACRNGDVSRVKRLVDAANVNAKDMAGRKSSPLHFAAGFGRKDVVEHLLQMGANVHARDDGGLIPLHNACSFGHAEVVSLLLCQGADPNARDNWNYTPLHEAAIKGKIDVCIVLLQHGADPNIRNTDGKSALDLADPSAKAVLTGEYKKDELLEAARSGNEEKLMALLTPLNVNCHASDGRKSTPLHLAAGYNRVRIVQLLLQHGADVHAKDKGGLVPLHNACSYGHYEVTELLLKHGACVNAMDLWQFTPLHEAASKNRVEVCSLLLSHGADPTLVNCHGKSAVDMAPTPELRERLTYEFKGHSLLQAAREADLAKVKKTLALEIINFKQPQSHETALHCAVASLHPKRKQVTELLLRKGANVNEKNKDFMTPLHVAAERAHNDVMEVLHKHGAKMNALDTLGQTALHRAALAGHLQTCRLLLSYGSDPSIISLQGFTAAQMGNEAVQQILSESTPIRTSDVDYRLLEASKAGDLETVKQLCSSQNVNCRDLEGRHSTPLHFAAGYNRVSVVEYLLHHGADVHAKDKGGLVPLHNACSYGHYEVAELLVRHGASVNVADLWKFTPLHEAAAKGKYEICKLLLKHGADPTKKNRDGNTPLDLVKEGDTDIQDLLRGDAALLDAAKKGCLARVQKLCTPENINCRDTQGRNSTPLHLAAGYNNLEVAEYLLEHGADVNAQDKGGLIPLHNAASYGHVDIAALLIKYNTCVNATDKWAFTPLHEAAQKGRTQLCALLLAHGADPTMKNQEGQTPLDLATADDIRALLIDAMPPEALPTCFKPQATVVSASLISPASTPSCLSAASSIDNLTGPLAELAVGGASNAGDGAAGTERKEGEVAGLDMNISQFLKSLGLEHLRDIFETEQITLDVLADMGHEELKEIGINAYGHRHKLIKGVERLLGGQQGTNPYLTFHCVNQGTILLDLAPEDKEYQSVEEEMQSTIREHRDGGNAGGIFNRYNVIRIQKVVNKKLRERFCHRQKEVSEENHNHHNERMLFHGSPFINAIIHKGFDERHAYIGGMFGAGIYFAENSSKSNQYVYGIGGGTGCPTHKDRSCYICHRQMLFCRVTLGKSFLQFSTMKMAHAPPGHHSVIGRPSVNGLAYAEYVIYRGEQAYPEYLITYQIMKPEAPSQTATAAEQKT

Experiments:
[1] = biological target: FLAG3-TNKS, wild type, full length (human) (UniProt O95271); assay: co-IP; HEK293T cells transfected with FLAG3- and MYC2-Tankyrases; WT FLAG3-Tankyrase precipitated with anti-FLAG M2 affinity gel; MYC2-Tankyrases detected by western blot
TNKS SAM V1056W (human) = TNKS SAM V1056W (human) (UniProt O95271); assay: ITC; EH mutant (TNKS2 SAM Y920A or TNKS SAM Y1073A, 500 μM) injected in 2-μl increments into ML mutant (TNKS2 SAM V903W or TNKS SAM V1056W, 50 μM); binding buffer with 200 mM NaCl; one-site binding model; both purified
[2] = biological target: T1, MYC2-TNKS, wild type, full length (human), O95271; assay: SEC; gel filtration (fractionation) of cell lysates, Figure S6A; cells and tags not shown; conditions: remark: other sources report otherwise
T1 chain: B1 chain

[3] = biological target: T2, FLAG3-TNKS, wild type, full length (human), O95271; assay: co-IP; HEK293T cells transfected with FLAG3- and MYC2-Tankyrases; WT FLAG3-Tankyrase precipitated with anti-FLAG M2 affinity gel; MYC2-Tankyrases detected by western blot; conditions: remark: other sources report otherwise
T2 chain: B1 chain

Row | Molecule | binding [1] | further results
1 | MYC2-TNKS V1056W, full length (from UniProt O95271 1-1327) (enzyme) | binds | –
2 | MYC2-TNKS VY1056/1073WA, full length (from UniProt O95271 1-1327) (enzyme) | no binding | –
3 | MYC2-TNKS Y1073A, full length (from UniProt O95271 1-1327) (enzyme) | binds | –
4 | TNKS SAM Y1073A (from UniProt O95271 1018-1093) (domain or fragment) | – | binding (TNKS SAM V1056W (human)): binds
5 | TNKS T1049R, full length (from UniProt O95271 1-1327) (enzyme) | binds | –
6 | B1 | – | binding [2]: binds; binding [3]: binds
